Experimental findings from PubChem BioAssay are described below.

Where “and” joins values, the source holds several entries; their conditions need not be identical. Identical values can stand only once. This is one part of the list. The main result of the screen is listed elsewhere. These columns were measured beside it and carry no call. Bridge positions count the residues as written; N and C are the ends. Square brackets hold non-standard residues; d marks the D form. Peptide text beside a SMILES is read from it. * marks the point of attachment. Octanoyl(6-Me) = CCC(C)CCCCC(=O)*; Dab = NCC[CH](N)C(=O)O

This assay is described as follows: PubChem AID 1586. The note with it: yeast two-hybrid polyglutamine protein interaction, reporter readout; measured here: averaged growth delta OD.
`NC(N)=NC(=O)c1nc(Cl)c(N)nc1N` yielded a signal change (36 h minus 0 h) of 0.04.
For the compound `CCCCC1C(=O)N(c2ccccc2)N(c2ccccc2)C1=O`, the signal change (36 h minus 0 h) amounted to 0.0795.
In turn, `C[C@@H]1CC2C3C[C@H](F)C4=CC(=O)C=CC4(C)C3(F)[C@@H](O)CC2(C)C1C(=O)COC(=O)C(C)(C)C` (some centres undefined) displayed a signal change (36 h minus 0 h) of 0.189.
In turn, `NS(=O)(=O)c1cc2c(cc1C(F)(F)F)NCNS2(=O)=O` gave a signal change (36 h minus 0 h) of 0.0886.
`CN1CCC(=C2c3ccccc3Sc3ccccc32)CC1`: the signal change (36 h minus 0 h) amounted to 0.103.
The result for `Cc1ccccc1C(OCCN(C)C)c1ccccc1` (centres undefined) reads 0.138; that for `N[C@H](C(=O)O)[C@@H]1CC(Cl)=NO1`, 0.099.
As for `NCCc1ccc(O)c(O)c1`, the signal change (36 h minus 0 h) was determined as 0.0757.
Compound `Nc1ccc(C(=O)O)cc1` yielded a signal change (36 h minus 0 h) of 0.401.
With `CC(=O)N[C@@H]1[C@@H](O)[C@H](O)[C@@H](CO)O[C@H]1O`, the signal change (36 h minus 0 h) was 0.125.
Compound `CC(C)Cn1c(=O)n(C)c(=O)c2[nH]cnc21` gave a signal change (36 h minus 0 h) of 0.383.
In turn, `C[C@]12CCC3c4ccc(O)cc4CCC3C1C[C@@H](O)[C@@H]2O` (some centres undefined) displayed a signal change (36 h minus 0 h) of 0.0622.
Take `CC1(C)S[C@@H]2[C@H](NC(=O)Cc3ccccc3)C(=O)N2[C@H]1C(=O)O`: the signal change (36 h minus 0 h) amounted to 0.0876.
The value for `O=C(Cn1ccnc1[N+](=O)[O-])NCCO` was 0.0441; that for `C[C@@H]1CC2C3CCC4=CC(=O)C=C[C@]4(C)[C@@]3(F)[C@@H](O)C[C@]2(C)[C@@]1(O)C(=O)COP(=O)(O)O` (some centres undefined) was 0.0926; that for `O=C(O)c1cccnc1C(=O)O` was 0.0925.
`Nc1nc2c(ncn2COCCO)c(=O)[nH]1`: the signal change (36 h minus 0 h) worked out at 0.141.
Consider `CC[C@H]1OC(=O)[C@H](C)[C@@H](O[C@H]2C[C@@](C)(OC)[C@@H](O)[C@H](C)O2)[C@H](C)[C@@H](O[C@@H]2O[C@H](C)C[C@H](N(C)C)[C@H]2O)[C@](C)(O)C[C@@H](C)C(=O)[C@H](C)[C@@H](O)[C@]1(C)O`, for which the signal change (36 h minus 0 h) was 0.211 and 0.0678 and 0.173.
`Nc1ncnc2c1ncn2C1OC(CO)[C@H](O)C1O` (some centres undefined) registered a signal change (36 h minus 0 h) of 0.178.
Consider `Cc1ccsc1/C=C/C1=NCCCN1C`, for which the signal change (36 h minus 0 h) turned out to be 0.146.
`NCCNC(=O)c1ccc(Cl)cc1` had a signal change (36 h minus 0 h) of 0.0946.
`CCn1nc(C(=O)O)c(=O)c2cc3c(cc21)OCO3` showed a signal change (36 h minus 0 h) of 0.0987.
Take `CC1CC2C3CCC4=CC(=O)C=CC4(C)[C@@]3(F)C(O)CC2(C)[C@@]1(O)C(=O)CO` (some centres undefined): the signal change (36 h minus 0 h) is 0.196.
For `CCC[C@@H]1C[C@@H](C(=O)N[C@H]([C@H]2O[C@H](SC)[C@H](O)[C@@H](O)[C@H]2O)[C@H](C)O)N(C)C1`, the signal change (36 h minus 0 h) was determined as 0.101.
`CCC(C)CCCCC(=O)NC(CCN)C(=O)NC(C(=O)NC(CCN)C(=O)NC1CCNC(=O)C(C(C)O)NC(=O)C(CCN)NC(=O)C(CCN)NC(=O)C(CC(C)C)NC(=O)C(Cc2ccccc2)NC(=O)C(CCN)NC1=O)C(C)O` (centres undefined) ({Octanoyl(6-Me)}-[Dab]T[Dab][Dab][Dab]FL[Dab][Dab]T; lactam 4-C; configuration not given here) registered a signal change (36 h minus 0 h) of -0.137.
The compound `COc1ccc(/C=C/c2cc(O)cc(O[C@@H]3O[C@H](CO)[C@@H](O)[C@H](O)[C@H]3O)c2)cc1O` showed a signal change (36 h minus 0 h) of 0.376.
Take `C1N2CN3CN1CN(C2)C3`: the signal change (36 h minus 0 h) came out at 0.209.
`CN(C)CCOC(c1ccccc1)c1ccccc1` returned a signal change (36 h minus 0 h) of 0.222.
In turn, `Cc1cc(=O)[nH]c(=S)[nH]1` gave a signal change (36 h minus 0 h) of 0.169.
Compound `OCc1ccccc1O` showed a signal change (36 h minus 0 h) of 0.0355.
The result for `OCc1cc2c(cn1)[nH]c1ccccc12` reads 0.0885; that for `CN[C@@H]1[C@H](O)[C@H](NC)[C@H]2O[C@@]3(O)C(=O)C[C@@H](C)O[C@H]3OC2[C@H]1O` (some centres undefined), 0.421.
As for `CCCC(=O)Nc1ncnc2c1ncn2C1O[C@@H]2COP(=O)(O)O[C@H]2[C@H]1OC(=O)CCC` (some centres undefined), the signal change (36 h minus 0 h) was found to be 0.15.
`CS(=O)(=O)Nc1ccc([N+](=O)[O-])cc1Oc1ccccc1` gave a signal change (36 h minus 0 h) of 0.0621.
As to `OC[C@H]1O[C@@H](O[C@@H]2[C@@H](CO)O[C@](O)(CO)[C@H]2O)[C@H](O)[C@@H](O)[C@H]1O`, the signal change (36 h minus 0 h) was determined as 0.0355.
The compound `CC[C@H]1OC(=O)[C@H](C)[C@@H](O[C@H]2C[C@@](C)(OC)[C@@H](O)[C@H](C)O2)[C@H](C)[C@@H](O[C@@H]2O[C@H](C)C[C@H](N(C)C)[C@H]2O)[C@](C)(O)C[C@@H](C)/C(=N\OCOCCOC)[C@H](C)[C@@H](O)[C@]1(C)O` displayed a signal change (36 h minus 0 h) of 0.089.
In turn, `CCN(CC)CCOC(=O)c1ccc(N)cc1` yielded a signal change (36 h minus 0 h) of 0.0631.
With `C=C[C@H]1CN2CC[C@H]1C[C@@H]2[C@@H](O)c1ccnc2ccc(OC)cc12`, the signal change (36 h minus 0 h) was found to be 0.0593.
The result for `CC1(C)O[C@@H]2CC3C4C[C@H](F)C5=CC(=O)CC[C@]5(C)C4[C@@H](O)C[C@]3(C)[C@]2(C(=O)CO)O1` (some centres undefined) reads 0.199.
